From article PMC4965013, “Open Source Drug Discovery with the Malaria Box Compound Collection for Neglected Diseases and Beyond” (PLoS Pathogens, 2016)

Sequences of proteins named here, by UniProt entry; tags and fusion partners are left off.
UniProt P41595, whole entry: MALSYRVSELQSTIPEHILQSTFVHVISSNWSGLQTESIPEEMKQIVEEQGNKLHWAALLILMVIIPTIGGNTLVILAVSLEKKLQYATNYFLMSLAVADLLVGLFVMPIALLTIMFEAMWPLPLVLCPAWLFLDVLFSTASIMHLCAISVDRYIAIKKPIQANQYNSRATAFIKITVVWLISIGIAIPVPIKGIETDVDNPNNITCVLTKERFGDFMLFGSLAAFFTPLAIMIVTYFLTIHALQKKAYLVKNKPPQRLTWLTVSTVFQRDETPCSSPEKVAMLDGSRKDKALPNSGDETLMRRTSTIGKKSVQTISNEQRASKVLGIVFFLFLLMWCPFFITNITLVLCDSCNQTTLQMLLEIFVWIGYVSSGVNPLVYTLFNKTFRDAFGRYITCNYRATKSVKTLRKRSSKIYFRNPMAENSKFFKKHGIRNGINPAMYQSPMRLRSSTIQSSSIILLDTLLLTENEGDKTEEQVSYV

How the values were obtained:
5-HT2B receptor = 5-HT2B receptor (Homo sapiens, UniProt P41595); assay: 5-HT2B radioligand binding
PK6 = details: control 10 µM; compounds 1 µM; ref [25]; cited from earlier work

In the case of `CC[C@@H](CO)NC(=O)[C@@H]1C=C2c3cccc4c3c(cn4C)C[C@H]2N(C)C1` [methysergide], the Ki (5-HT2B receptor) is reported as 8.8 nM.
In the case of `CN[C@@H]1C[C@H]2O[C@@](C)([C@@H]1OC)n1c3ccccc3c3c4c(c5c6ccccc6n2c5c31)C(=O)NC4` [staurosporine], the PK6 % inhibition (PK6) is listed as over 80%.
